## Screening data, single-dose tests

The values are deposited in ChEMBL (CHEMBL3988442, “University of Dundee, Small-Polar-MMV Screening Library” (2021)).

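Assay of Toxoplasma gondii numbers, read through their beta-galactosidase reporter with a colour substrate. Compounds at 50 µM. Higher reads as fewer parasites (inferred from which compounds were picked for retests). Of about 18,000 compounds tested this way, about 170 (0.94%) reached 50% or more in at least one test.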

Values are the deposited “Percent Effect”, in %. The controls that fix the scale are not given in the record; negative values are as filed. The compounds are a random part of those screened.

| Compound | effect |
|---|---|
| `Nc1nnc(CC(=O)N2CCCC2)[nH]1` | -39.25% |
| `CN(CC(N)=O)C(=O)c1cc(Cl)c2c(c1)OCO2` | -10.01% |
| `CC1CCN(S(=O)(=O)NC(C)C(C)C)CC1` (stereo not drawn) | 3.872% |
| `Cn1ncc2c(NCC(=O)N3CCCC3)ncnc21` | -3.018% |
| `CC(C)n1cnnc1CN(C)Cc1cscn1` | -4.51% |
| `COCCN(c1nccc(C(F)(F)F)n1)C(C)C(N)=O` (stereo not drawn) | -30.7% |
| `Cc1nnnn1CCC(=O)N1C[C@H]2CC[C@@H](C1)[C@H]2O` | 41.54% |
| `COCCC1(CO)CCCN(Cc2csc(C)n2)C1` (stereo not drawn) | -2.729% |
| `CC(C)(NC(=O)c1cc2ccc(Br)cc2[nH]1)C(N)=O` | 2.511% |
| `COC(=O)c1cc(F)ccc1Cn1ccccc1=O` | 14.14% |
| `Nc1cn(-c2ccccc2C(F)(F)F)nn1` | -14.92% |
| `CN(CC(N)=O)Cc1cncn1C1CCCCC1` | -1.902% |
| `COc1ccc(NC(=O)C2(C)CCCN2)cc1` (stereo not drawn) | -12.34% |
| `COc1ccc(Cl)c(S(=O)(=O)NCCC(C)N)c1` (stereo not drawn) | -2.766% |
| `C1C[C@@H]2CNC[C@@H]2O1` | -8.819% |
| `CNS(=O)(=O)CC1CCCN1c1ncc(Br)cn1` (stereo not drawn) | 3.993% |
| `OC1(c2nc(-c3cnccn3)no2)CCCCC1` | -12.85% |
| `Cc1nn(C)c(C(=O)NC(C)CN2CCOCC2)c1Br` (stereo not drawn) | -18.73% |
| `CN1C(=O)CC(C(=O)NCCc2nccn2C)C1(C)C` (stereo not drawn) | 1.299% |
| `CC1(N)CCN(Cc2ccccc2)C1` (stereo not drawn) | 2.84% |
| `Cc1ccc(NC(=O)CN2CCCC2)cc1` | -1.186% |
| `CSc1ncc(CNC(=O)[C@H]2CC[C@@H](N)C2)n1C` | 11.1% |
| `Cc1cc(NC(CO)CO)nc2ccccc12` | -3.516% |
| `Cn1cncc1CN1CCCC(CS(C)(=O)=O)C1` (stereo not drawn) | -2.827% |
| `CC(C(=O)Nc1ccccc1)N1CCC(O)CC1` (stereo not drawn) | -6.659% |
| `CCCc1nccn1CC(=O)NC(C)C` | 4.658% |
| `CN[C@@H]1CN(C(=O)OC(C)(C)C)C[C@H]1O` | -3.074% |
| `CC1=NN(C(=O)Cn2cccn2)C(O)(C(F)(F)F)C1` (stereo not drawn) | -3.824% |
| `Cc1cc(C)cc(C(=O)N2CCCC(O)C2)c1` (stereo not drawn) | 3.427% |
| `Cc1ccc2nc(CN3CCC[C@H]3CO)cc(O)c2c1` | -4.743% |
| `Cc1cccc(CNCCc2nnc[nH]2)c1` | -1.484% |
| `NCc1ccncc1OCC1CCOC1` (stereo not drawn) | 23% |
| `NC(=O)c1ccccc1COC(=O)c1ccsc1` | 4.513% |
| `O=S1(=O)CCCN1c1ccccc1Br` | -7.362% |
| `CCc1nnc(CN2CCOC3(CCCC3)C2)o1` | -2.963% |
| `CC1(C)CC(CCN)CCO1` (stereo not drawn) | -41.86% |
| `CC(C#N)N1CCC(C(=O)NCc2cccs2)CC1` (stereo not drawn) | 0.2509% |
| `CCCN1CCC(NC(=O)NCC(O)C2CC2)CC1` (stereo not drawn) | 12.75% |
| `Cc1ccc(NC(=O)CCNS(C)(=O)=O)c(F)c1` | 5.563% |
| `CC(C)(C)C(O)CN` (stereo not drawn) | -7.57% |
| `CN(C)CCNC(=O)CCS(=O)(=O)c1ccc(Cl)cc1` | -1.919% |
| `COCC(=O)N1CCCN(Cc2ccncc2Cl)CC1` | 6.086% |
| `O=C(CNC(=O)c1cccnc1O)NC1CC1` | -2.103% |
| `COCc1cc(=O)c2cc(F)ccc2[nH]1` | -4.491% |
| `O=C(CCCc1cccs1)NC1(CCO)CCOCC1` | -6.133% |
| `COC(=O)Cc1cc(OC)ccc1S(N)(=O)=O` | -21.88% |
| `C=C(Br)CNC(=O)c1ccc(CN2CCCC2)cc1` | -6.347% |
| `COCCCN(C)C(=O)Nc1cnccc1C` | -15.05% |
| `Cc1cscc1NC(=O)NCCC1(C)OCCO1` | 7.707% |

Once more, the final 6:

For COCc1cc(=O)c2cc(F)ccc2[nH]1 the result was -4.491%.
For O=C(CCCc1cccs1)NC1(CCO)CCOCC1 the result was -6.133%.
For COC(=O)Cc1cc(OC)ccc1S(N)(=O)=O the result was -21.88%.
For C=C(Br)CNC(=O)c1ccc(CN2CCCC2)cc1 the result was -6.347%.
For COCCCN(C)C(=O)Nc1cnccc1C the result was -15.05%.
For Cc1cscc1NC(=O)NCCC1(C)OCCO1 the result was 7.707%.